Measured values from PubChem BioAssay AID1347423 (Functional Genomics Laboratory (NCATS/FGL), 2020).
Screen size: about 52,000 sequences; about 210 (0.4%) were called active.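 The calls were made as follows: active = gene whose silencing raises cell survival under the drug, median off-target-corrected z-score across its silencing RNAs 2 or more; inactive = the rest.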 The list shows a part of the results.

Experiment: Resistance to Poly (ADP-Ribose) Polymerase inhibitor: Gene Identification via Genome-wide siRNA Screen
Settings: mouse BRCA2 R2336H ES cells, olaparib, CellTiter-Glo viability; stronger effect = higher value
Procedure, shortened: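 Genome-wide siRNA screen (3 siRNAs/gene, 20 nM) in mouse ES cells carrying hypomorphic BRCA2 R2336H; olaparib 500 nM added 48 h post-transfection, CellTiter-Glo viability 72 h later. Normalized to plate-median negative control; MAD z-scores, gene median, seed-adjusted.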

Sequence	z-score
GGUCAAGUUCACCAAGAUATT against Aldh1a3	inactive: 1.01
GGUUGAGUUUCAGUGCAUCTT against Btbd5	inactive: -1.26
GGCAAACUCAUCCAUGUGCTT against Fabp3	inactive: -0.4
GGAUCCAGAUACUCCCAAGTT against Camp	inactive: -0.0866
GCAAAUAAGAUUGCGUCUGTT against MGC107514	inactive: 2.48
GGAUUUGUAAAUUACCUGGTT against Clecsf8	inactive: -0.376
GGACAUGAUGAGUGACCUGTT against Elmo1	inactive: -0.984
GCCAAUCUGAAAGGAUAUUTT against Tpst2	inactive: -0.805
GGUUUCUGUUUUGUCACACTT against 9330176C04Rik	inactive: 0.369
GCUCUUCCGCACUUUCAUUTT against 1700012L04Rik	inactive: 0.668
CCAUCUGAUUUCUUUCCAGTT against MGC78233	inactive: -0.642
GGUGAAGAGCAUCAUAACCTT against Fabp4	inactive: 0.199
CCCAGAGGUAAAGAAGGUCTT against 1700018L24Rik	inactive: 0.316
CGUGCAUCCCUAUAUCCUATT against Panx2	inactive: 0.682
GGUAAAUGAGAAAAACCUCTT against Gda	inactive: -0.0873
GGGCUUGGCAUACUCCUAATT against Ebf4	inactive: -0.125
GGAUAACCAACAAGGUUUUTT against Mgst1	inactive: 2.04
CGGCACUAGGAAGCUUUUATT against Inpp5a	inactive: -1.26
GCCAGGUCCUCAAAUGAAATT against Wbscr24	inactive: 0.399
GGAUGUGGUUUUACAUCUGTT against Lrp11	inactive: 0.56
AUGGACAGGACUUAGAUUCTT against LOC435023	inactive: -0.328
GGAGGUACCAUGCUAUGCATT against Igf2r	inactive: 1.27
GCAAGAUGAGAAGGAUUUUTT against 6430544H17Rik	inactive: 1.05
GGUCAUAGAGACAGACUACTT against Lcn12	inactive: -2.06
CCAAGUCGGACUUACGGUUTT against 1600025D17Rik	inactive: -0.231
CCCACAAUGCUGCUAUUAUTT against Gmfb	inactive: -1.92

At a glance, some entries already given.
Sequence	z-score
GGUUGAGUUUCAGUGCAUCTT against Btbd5	inactive: -1.26
GGCAAACUCAUCCAUGUGCTT against Fabp3	inactive: -0.4
GGAUCCAGAUACUCCCAAGTT against Camp	inactive: -0.0866

(cont.)

Sequence	z-score
GCUCUUAGAGAUUUGUUUGTT against Usp14	inactive: -0.185
GGAUUGCCUCACGGUUGCUTT against 9130416N05Rik	inactive: -1.79
GGGUUAUCUAUGCAAAUCCTT against Odc1	inactive: 0.574
GCUGAUUCAAAACCAGGCATT against Nme2	inactive: 0.681
CCAUGAGCAUAGUUAUCAGTT against Ankib1	inactive: 0.645
CGACAACAUUCGGAGAGGATT against 2700063A19Rik	inactive: -0.914
GGAGAAUGAAGAUGAAUGUTT against 4930424G05Rik	inactive: -0.0136
GGGAAAGGCAUUUAUUUUCTT against 1810030J14Rik	inactive: 0.404
GGAACCCUGAACUUGAACGTT against 9530025L16Rik	inactive: -0.307
GGGACAACAUUUUCUUGCCTT against Ms4a6b	inactive: 0.447
GGAGAGGAACAGGAACAGATT against Ankrd9	inactive: -0.431
GGUGGACUGGAUCUGAAUGTT against 5830433M19Rik	inactive: 1.09
GGAAGCCAAAGAGAAACAATT against Ighmbp2	inactive: -1.08
CCCAUAGACAUUUAUGUAATT against D17H6S56E-5	inactive: 0.0893
GGCUUUGAAACAUAAGAACTT against Zfp472	inactive: 0.702
CGGCAGCUUGAAAUUACUGTT against Stx3	inactive: 1.85
GCGAUUACUACUUGAAACUTT against Fa2h	inactive: -0.348
GCUAAUAGGGUGCUUUAAUTT against Rab33b	inactive: 0.418
GGGAGACAUCCCGAUACAGTT against Mlf2	inactive: -0.941
GAUAUAAGGACUCUUUGAATT against 4732486J07Rik	inactive: -0.212
GCGGCACACCCUUAUUACATT against Zfp162	inactive: -1.15
CCCUGCUUACGAUUGAUAGTT against Ccr1l1	inactive: -2.4
GGAAGAACAGAGGCAGAAGTT against Trpv3	inactive: -1.15
GCGUGAAUCCGAUCCAACUTT against Spag5	inactive: -1.36
GCGACACGUCUCCAGAUGATT against Pldn	inactive: -1.55
GGUUCAGAUCCACAGCCAGTT against Accn1	inactive: 0.543
